This data set can be described thus: general procedure: solution-phase peptide synthesis; HOBt/DIPEA/pyridine (PNP carbonate); DIC/HOBt. Conditions: conjugation step.

On to “Triacryloylhexahydro triazine-mercaptoacetic acid-valine-citrulline-p-aminobenzyloxycarbonyl Monomethyl auristatin E”, for which the conjugation yield is, setting by setting: (run 1) 52%; (run 2) 65.27%.

Source of the values: patent US20200138968 (published 2020).
